Measurements taken from the supplement of paper PMC4604168 (melanoma cell lines).
The other results are listed elsewhere or left out. Single values are uncertain, as repeats are few or missing.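 Cells were imaged in 1,536-well plates, and nuclei stained with an antibody against cleaved PARP were counted against all DNA-stained nuclei to give the apoptosis fraction. Screening doses were chosen to leave most cells alive, and resting and induced cleaved-PARP levels differ strongly between cell lines.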

Legend:
Experiment in all cases: cleaved PARP positive nuclei fraction relative to DMSO control; melanoma cells; higher = more apoptosis
Conditions in all cases: library dose: low library concentration; 72 h
MZ2-MEL = system: MZ2-MEL
MeWo = system: MeWo
RPMI7951 = system: RPMI7951
RVH-421 = system: RVH-421
SkMel28 = system: SkMel28
SkMel2 = system: SkMel2
SkMel30 = system: SkMel30
UACC62 = system: UACC62
WM115 = system: WM115
WM1716 = system: WM1716
WM1745 = system: WM1745
WM3526 = system: WM3526
WM3619 = system: WM3619
WM451Lu = system: WM451Lu

Row | SMILES | cleaved PARP positive nuclei fraction (MZ2-MEL) [%] | cleaved PARP positive nuclei fraction (MeWo) [%] | cleaved PARP positive nuclei fraction (RPMI7951) [%] | cleaved PARP positive nuclei fraction (RVH-421) [%] | cleaved PARP positive nuclei fraction (SkMel28) [%] | cleaved PARP positive nuclei fraction (SkMel2) [%] | cleaved PARP positive nuclei fraction (SkMel30) [%] | cleaved PARP positive nuclei fraction (UACC62) [%] | cleaved PARP positive nuclei fraction (WM115) [%] | cleaved PARP positive nuclei fraction (WM1716) [%] | cleaved PARP positive nuclei fraction (WM1745) [%] | cleaved PARP positive nuclei fraction (WM3526) [%] | cleaved PARP positive nuclei fraction (WM3619) [%] | cleaved PARP positive nuclei fraction (WM451Lu) [%]
1 | O=c1[nH]nc(Sc2ncc([N+](=O)[O-])s2)n1-c1ccc2c(c1)OCCO2 + C[C@@H](N)c1ccc(C(=O)Nc2ccnc3[nH]ccc23)cc1 [RKI983] (first compound 0.2 µM, partner dose 0.4 µM) | 295 | 213 | 63.1 | 291 | 88.5 | 57.2 | 83.1 | 192 | 24.9 | 250 | 98.1 | 63.8 | 203 | 118
2 | Cc1cn(-c2cc(NC(=O)c3ccc(C)c(Nc4nccc(-c5cccnc5)n4)c3)cc(C(F)(F)F)c2)cn1 [nilotinib] + Cc1cc(Nc2cc(N3CCN(C)CC3)nc(/C=C/c3ccccc3)n2)n[nH]1 [ENMD2076] (first compound 0.2 µM, partner dose 0.04 µM) | 70.7 | 102 | 103 | 331 | 316 | 173 | 171 | 376 | 43.2 | 158 | 111 | 47.8 | 79.4 | 52.5
3 | O=C(/C=C/c1cccnc1)NCCCCC1CCN(C(=O)c2ccccc2)CC1 + CO[C@H]1C[C@@H]2CC[C@@H](C)[C@@](O)(O2)C(=O)C(=O)N2CCCC[C@H]2C(=O)O[C@H]([C@H](C)C[C@@H]2CC[C@@H](OCCO)[C@H](OC)C2)CC(=O)[C@H](C)/C=C(\C)[C@@H](O)[C@@H](OC)C(=O)[C@H](C)C[C@H](C)/C=C/C=C/C=C/1C [everolimus] (first compound 0.01 µM, partner dose 0.02 µM) | 355 | 78.6 | 40 | 109 | 122 | – | 31.7 | 252 | 113 | 52.4 | 21 | 53.4 | 116 | 156
4 | Cc1cn(-c2cc(NC(=O)c3ccc(C)c(Nc4nccc(-c5cccnc5)n4)c3)cc(C(F)(F)F)c2)cn1 [nilotinib] + Cc1nc(Nc2ncc(C(=O)Nc3c(C)cccc3Cl)s2)cc(N2CCN(CCO)CC2)n1 [dasatanib] (first compound 0.2 µM, partner dose 0.004 µM) | 81.7 | 87.6 | 142 | 246 | 195 | 70.1 | 98.1 | 104 | 98.8 | 70.2 | 123 | 83.9 | 90 | 91
5 | O=C(Nc1cc(C(F)(F)F)cc(C(F)(F)F)c1)c1cc(Cl)ccc1O + COc1ccc(Cl)c(Nc2nc3ccccc3nc2NS(=O)(=O)c2cccc(NC(=O)C(C)(C)N)c2)c1 [XL147] (first compound 0.016 µM, partner dose 0.8 µM) | 36.2 | 57.5 | 30.3 | 79.8 | 41.1 | 69 | 97.2 | 105 | 81.8 | 189 | 96.2 | 44.2 | 82.8 | 86.2
6 | CC[C@]1(O)C[C@H]2CN(CCc3c([nH]c4ccccc34)[C@@](C(=O)OC)(c3cc4c(cc3OC)N(C=O)[C@H]3[C@@](O)(C(=O)OC)[C@H](OC(C)=O)[C@]5(CC)C=CCN6CC[C@]43[C@@H]65)C2)C1 [vincristine] + Cc1ccc(Nc2nccc(N(C)c3ccc4c(C)n(C)nc4c3)n2)cc1S(N)(=O)=O [Pazopanib] (first compound 0.0001 µM, partner dose 0.4 µM) | 56.5 | 133 | 155 | 398 | 122 | 165 | 244 | 116 | 788 | 474 | 107 | 131 | 187 | 101
7 | CCCCCCCCCCCCCCCCCCOP(=O)([O-])OC1CC[N+](C)(C)CC1 [Perifosine] + NC(=O)c1ccc(N(C(N)=O)c2c(F)cccc2F)nc1-c1ccc(F)cc1F [VX702] (first compound 0.4 µM, partner dose 0.4 µM) | 77 | 71 | 84.1 | 104 | 62.2 | 84.9 | 107 | 101 | 151 | 142 | 120 | 184 | 101 | 28.7
8 | O=C(/C=C/c1cccnc1)NCCCCC1CCN(C(=O)c2ccccc2)CC1 + Cc1cn(-c2cc(NC(=O)c3ccc(C)c(Nc4nccc(-c5cccnc5)n4)c3)cc(C(F)(F)F)c2)cn1 [nilotinib] (first compound 0.01 µM, partner dose 0.2 µM) | 538 | 100 | 99.6 | 128 | 99 | 5350 | 105 | 181 | 95 | 49.2 | 102 | 123 | 108 | 78.4
